{"source": "PubChem BioAssay AID1671195 (Yale University, 2021)", "aim": "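Knockdowns that increase or decrease uptake of fluorescent LDL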 (primary screen)", "cell system": "human Huh7 hepatoma cells", "reagent": "siRNA pool against human genes, 18 nM", "time to read-out": "about 2 to 2.5 days of knockdown, then 8 h LDL uptake", "treatment": "DiI-labelled LDL at 30 µg/ml for 8 h, in lipoprotein-deficient serum medium", "measured": "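Per-cell DiI-LDL intensity by automated imaging; well means scaled to the plate median and given as a robust z-score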", "reading the numbers": "robust z-score: higher = more LDL uptake after knockdown", "rule for the call": "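a gene counts as active if at least two replicate z-scores exceed ±2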", "note": "In all, the deposit lists about 22,000 reagents; this is a random part of them. About 1,510 of all reagents (6.9%) were called active. 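Active includes knockdowns raising or lowering LDL uptake; positive z-scores mean more uptake, negative mean less.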 A number with no mark means an inactive call."}
{"gene symbol": "LINC01107", "robust z-score, replicate 1": -1.11, "robust z-score, replicate 2": -0.291, "robust z-score, replicate 3": 10.9}
{"gene symbol": "MEGF8", "robust z-score, replicate 1": -1.56, "robust z-score, replicate 2": -1.16, "robust z-score, replicate 3": -0.768}
{"gene symbol": "CA10", "robust z-score, replicate 1": 0.0562, "robust z-score, replicate 2": -0.124, "robust z-score, replicate 3": -0.311}
{"gene symbol": "PDC", "robust z-score, replicate 1": -0.204, "robust z-score, replicate 2": -0.0488, "robust z-score, replicate 3": -1.07}
{"gene symbol": "AKR1C1", "robust z-score, replicate 1": "-1.76 (active)", "robust z-score, replicate 2": -1.92, "robust z-score, replicate 3": -2.22}
{"gene symbol": "HSP90AB6P", "robust z-score, replicate 1": -0.765, "robust z-score, replicate 2": -1.19, "robust z-score, replicate 3": -1.33}
{"gene symbol": "RNASEH1", "robust z-score, replicate 1": -1.36, "robust z-score, replicate 2": -0.537, "robust z-score, replicate 3": -1.21}
{"gene symbol": "TMSB4Y", "robust z-score, replicate 1": 2.22, "robust z-score, replicate 2": 0.799, "robust z-score, replicate 3": 0.892}
{"gene symbol": "DDX41", "robust z-score, replicate 1": 1.02, "robust z-score, replicate 2": 1.69, "robust z-score, replicate 3": 1.64}
{"gene symbol": "REXO4", "robust z-score, replicate 1": 1.62, "robust z-score, replicate 2": 1.76, "robust z-score, replicate 3": 1.48}
{"gene symbol": "LOC400861 (retired record)", "robust z-score, replicate 1": 1.36, "robust z-score, replicate 2": 1.2, "robust z-score, replicate 3": 0.934}
{"gene symbol": "LZTS2", "robust z-score, replicate 1": -1.06, "robust z-score, replicate 2": -1.12, "robust z-score, replicate 3": -1.11}
{"gene symbol": "OR1M1", "robust z-score, replicate 1": -0.522, "robust z-score, replicate 2": -0.468, "robust z-score, replicate 3": -0.787}
{"gene symbol": "ATP8B5P", "robust z-score, replicate 1": 1.84, "robust z-score, replicate 2": 1.65, "robust z-score, replicate 3": 1.22}
{"gene symbol": "TM7SF3", "robust z-score, replicate 1": 0.0157, "robust z-score, replicate 2": -0.984, "robust z-score, replicate 3": 0.392}
{"gene symbol": "CCL16", "robust z-score, replicate 1": 0.08, "robust z-score, replicate 2": 1.04, "robust z-score, replicate 3": 0.824}
{"gene symbol": "HMBS", "robust z-score, replicate 1": 1.91, "robust z-score, replicate 2": 1.28, "robust z-score, replicate 3": 2.64}
{"gene symbol": "LOC389939 (retired record)", "robust z-score, replicate 1": -0.441, "robust z-score, replicate 2": -0.458, "robust z-score, replicate 3": -0.649}
{"gene symbol": "RPGRIP1L", "robust z-score, replicate 1": 0.849, "robust z-score, replicate 2": 2.68, "robust z-score, replicate 3": 0.395}
{"gene symbol": "BCLAF1", "robust z-score, replicate 1": 0.569, "robust z-score, replicate 2": 0.353, "robust z-score, replicate 3": 1.51}
{"gene symbol": "BNIP3", "robust z-score, replicate 1": -1.31, "robust z-score, replicate 2": -0.978, "robust z-score, replicate 3": -0.271}
{"gene symbol": "ACACB", "robust z-score, replicate 1": 1.22, "robust z-score, replicate 2": 0.0306, "robust z-score, replicate 3": -0.463}
{"gene symbol": "ATF2", "robust z-score, replicate 1": -0.909, "robust z-score, replicate 2": -0.774, "robust z-score, replicate 3": -0.669}
{"gene symbol": "CBLL2", "robust z-score, replicate 1": 0.607, "robust z-score, replicate 2": -0.331, "robust z-score, replicate 3": 0.72}
